Data on one sequence can be found in publication doi:10.1101/2020.07.29.223594.

Broadly, the Kd is the equilibrium constant for the complex coming apart. A low value points to a tighter complex.

The data set deals with T1, APOBEC2 (Mus musculus) (UniProt Q9WV35).
T1 sequence (looked up, limits assumed): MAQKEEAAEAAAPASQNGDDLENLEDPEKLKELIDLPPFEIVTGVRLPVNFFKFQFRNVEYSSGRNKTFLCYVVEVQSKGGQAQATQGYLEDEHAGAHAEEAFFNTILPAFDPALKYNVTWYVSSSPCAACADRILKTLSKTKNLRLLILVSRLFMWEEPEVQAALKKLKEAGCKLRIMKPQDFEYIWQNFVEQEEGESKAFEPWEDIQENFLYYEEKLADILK
The data set is described as follows: MST. Particulars: Cy5-APOBEC2 50 nM.

For at least one entry, the source does not settle the construct or the ends of the probe. Tags and fusion partners may be left off the protein sequences shown.

With “GGCGGCGCGGCCCCGCCCCCTCCTCCGGC [SP/KLF motif ssDNA]”, the Kd was 253 nM.
